Assay results taken from the supplement of paper PMC10849652.
The list shows a part of the results.

By UniProt entry, the sequences of proteins in these tests, tags left out. Where a name states a change or a piece, a line headed by the entry shows the natural chain unless it says otherwise.
UniProt Q9BWS9: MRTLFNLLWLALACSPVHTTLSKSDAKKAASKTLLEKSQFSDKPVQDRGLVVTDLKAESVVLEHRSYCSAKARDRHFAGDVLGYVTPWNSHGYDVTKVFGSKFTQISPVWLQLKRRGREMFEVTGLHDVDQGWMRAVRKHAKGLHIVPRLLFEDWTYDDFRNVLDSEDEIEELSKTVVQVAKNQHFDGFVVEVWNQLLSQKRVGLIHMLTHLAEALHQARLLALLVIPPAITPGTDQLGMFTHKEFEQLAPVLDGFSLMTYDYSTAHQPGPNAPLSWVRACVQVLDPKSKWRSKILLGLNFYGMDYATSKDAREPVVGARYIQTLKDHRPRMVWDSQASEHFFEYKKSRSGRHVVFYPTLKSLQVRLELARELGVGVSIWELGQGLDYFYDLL
UniProt Q9Y6H1: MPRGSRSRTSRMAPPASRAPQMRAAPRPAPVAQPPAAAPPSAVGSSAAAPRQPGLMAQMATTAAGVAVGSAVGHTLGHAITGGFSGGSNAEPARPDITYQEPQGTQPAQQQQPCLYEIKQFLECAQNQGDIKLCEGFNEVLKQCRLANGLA
UniProt Q96MX0: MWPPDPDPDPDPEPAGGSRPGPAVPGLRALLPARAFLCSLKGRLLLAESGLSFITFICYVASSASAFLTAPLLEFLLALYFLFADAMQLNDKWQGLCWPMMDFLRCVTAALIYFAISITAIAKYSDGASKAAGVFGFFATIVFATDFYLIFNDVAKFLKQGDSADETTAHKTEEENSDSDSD
UniProt Q9UHD1: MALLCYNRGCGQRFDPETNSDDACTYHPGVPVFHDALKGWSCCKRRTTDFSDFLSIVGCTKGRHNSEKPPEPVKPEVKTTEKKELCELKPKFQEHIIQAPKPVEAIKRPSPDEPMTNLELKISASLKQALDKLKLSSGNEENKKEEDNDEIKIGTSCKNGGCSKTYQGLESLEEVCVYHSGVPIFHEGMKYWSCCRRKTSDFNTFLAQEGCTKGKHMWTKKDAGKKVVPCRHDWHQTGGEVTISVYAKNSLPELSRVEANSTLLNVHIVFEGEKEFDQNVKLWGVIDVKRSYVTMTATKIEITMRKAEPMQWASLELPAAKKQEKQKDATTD
UniProt Q14011: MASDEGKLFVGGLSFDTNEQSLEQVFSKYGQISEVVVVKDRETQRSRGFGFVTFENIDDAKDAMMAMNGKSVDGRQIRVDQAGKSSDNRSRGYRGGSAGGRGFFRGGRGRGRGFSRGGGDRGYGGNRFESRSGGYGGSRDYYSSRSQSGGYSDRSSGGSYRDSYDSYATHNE
UniProt Q9H6Q4: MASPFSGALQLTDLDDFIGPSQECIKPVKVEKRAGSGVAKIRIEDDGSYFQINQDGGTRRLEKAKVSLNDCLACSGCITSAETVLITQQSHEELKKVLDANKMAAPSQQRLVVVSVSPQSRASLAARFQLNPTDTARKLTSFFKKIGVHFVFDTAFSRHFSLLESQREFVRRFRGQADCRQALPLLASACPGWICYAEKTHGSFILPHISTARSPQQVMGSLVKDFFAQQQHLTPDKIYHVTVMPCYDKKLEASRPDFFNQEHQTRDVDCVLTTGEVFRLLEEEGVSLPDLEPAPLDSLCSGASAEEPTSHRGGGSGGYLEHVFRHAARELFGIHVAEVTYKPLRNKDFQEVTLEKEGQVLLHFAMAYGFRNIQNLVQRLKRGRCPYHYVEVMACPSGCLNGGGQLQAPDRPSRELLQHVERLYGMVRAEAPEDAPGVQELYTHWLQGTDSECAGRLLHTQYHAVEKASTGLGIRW
UniProt Q7LBR1: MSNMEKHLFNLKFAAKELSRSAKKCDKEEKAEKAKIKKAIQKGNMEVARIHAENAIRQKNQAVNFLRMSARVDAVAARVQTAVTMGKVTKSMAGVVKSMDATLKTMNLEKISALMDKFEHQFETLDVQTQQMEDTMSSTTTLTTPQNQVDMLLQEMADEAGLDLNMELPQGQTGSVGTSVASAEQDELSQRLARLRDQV
UniProt Q5EBM0: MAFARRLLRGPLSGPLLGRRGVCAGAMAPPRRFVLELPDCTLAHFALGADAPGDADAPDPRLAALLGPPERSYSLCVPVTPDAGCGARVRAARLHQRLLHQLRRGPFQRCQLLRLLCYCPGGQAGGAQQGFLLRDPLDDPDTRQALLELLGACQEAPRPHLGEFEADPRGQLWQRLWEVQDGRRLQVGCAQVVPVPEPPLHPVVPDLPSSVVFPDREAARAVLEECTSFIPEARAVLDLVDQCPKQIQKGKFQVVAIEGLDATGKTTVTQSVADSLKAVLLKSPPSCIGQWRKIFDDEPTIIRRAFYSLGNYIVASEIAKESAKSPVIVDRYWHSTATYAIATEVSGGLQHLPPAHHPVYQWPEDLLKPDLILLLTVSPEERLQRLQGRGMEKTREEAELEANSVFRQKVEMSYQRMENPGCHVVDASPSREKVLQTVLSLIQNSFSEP
UniProt Q96CF2: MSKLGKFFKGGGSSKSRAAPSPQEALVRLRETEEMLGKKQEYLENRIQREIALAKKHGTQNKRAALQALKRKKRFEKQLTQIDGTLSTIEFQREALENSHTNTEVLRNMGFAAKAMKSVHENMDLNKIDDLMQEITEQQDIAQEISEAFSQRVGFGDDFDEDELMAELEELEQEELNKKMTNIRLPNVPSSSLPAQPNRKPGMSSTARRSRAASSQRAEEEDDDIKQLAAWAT
UniProt Q9HCK8: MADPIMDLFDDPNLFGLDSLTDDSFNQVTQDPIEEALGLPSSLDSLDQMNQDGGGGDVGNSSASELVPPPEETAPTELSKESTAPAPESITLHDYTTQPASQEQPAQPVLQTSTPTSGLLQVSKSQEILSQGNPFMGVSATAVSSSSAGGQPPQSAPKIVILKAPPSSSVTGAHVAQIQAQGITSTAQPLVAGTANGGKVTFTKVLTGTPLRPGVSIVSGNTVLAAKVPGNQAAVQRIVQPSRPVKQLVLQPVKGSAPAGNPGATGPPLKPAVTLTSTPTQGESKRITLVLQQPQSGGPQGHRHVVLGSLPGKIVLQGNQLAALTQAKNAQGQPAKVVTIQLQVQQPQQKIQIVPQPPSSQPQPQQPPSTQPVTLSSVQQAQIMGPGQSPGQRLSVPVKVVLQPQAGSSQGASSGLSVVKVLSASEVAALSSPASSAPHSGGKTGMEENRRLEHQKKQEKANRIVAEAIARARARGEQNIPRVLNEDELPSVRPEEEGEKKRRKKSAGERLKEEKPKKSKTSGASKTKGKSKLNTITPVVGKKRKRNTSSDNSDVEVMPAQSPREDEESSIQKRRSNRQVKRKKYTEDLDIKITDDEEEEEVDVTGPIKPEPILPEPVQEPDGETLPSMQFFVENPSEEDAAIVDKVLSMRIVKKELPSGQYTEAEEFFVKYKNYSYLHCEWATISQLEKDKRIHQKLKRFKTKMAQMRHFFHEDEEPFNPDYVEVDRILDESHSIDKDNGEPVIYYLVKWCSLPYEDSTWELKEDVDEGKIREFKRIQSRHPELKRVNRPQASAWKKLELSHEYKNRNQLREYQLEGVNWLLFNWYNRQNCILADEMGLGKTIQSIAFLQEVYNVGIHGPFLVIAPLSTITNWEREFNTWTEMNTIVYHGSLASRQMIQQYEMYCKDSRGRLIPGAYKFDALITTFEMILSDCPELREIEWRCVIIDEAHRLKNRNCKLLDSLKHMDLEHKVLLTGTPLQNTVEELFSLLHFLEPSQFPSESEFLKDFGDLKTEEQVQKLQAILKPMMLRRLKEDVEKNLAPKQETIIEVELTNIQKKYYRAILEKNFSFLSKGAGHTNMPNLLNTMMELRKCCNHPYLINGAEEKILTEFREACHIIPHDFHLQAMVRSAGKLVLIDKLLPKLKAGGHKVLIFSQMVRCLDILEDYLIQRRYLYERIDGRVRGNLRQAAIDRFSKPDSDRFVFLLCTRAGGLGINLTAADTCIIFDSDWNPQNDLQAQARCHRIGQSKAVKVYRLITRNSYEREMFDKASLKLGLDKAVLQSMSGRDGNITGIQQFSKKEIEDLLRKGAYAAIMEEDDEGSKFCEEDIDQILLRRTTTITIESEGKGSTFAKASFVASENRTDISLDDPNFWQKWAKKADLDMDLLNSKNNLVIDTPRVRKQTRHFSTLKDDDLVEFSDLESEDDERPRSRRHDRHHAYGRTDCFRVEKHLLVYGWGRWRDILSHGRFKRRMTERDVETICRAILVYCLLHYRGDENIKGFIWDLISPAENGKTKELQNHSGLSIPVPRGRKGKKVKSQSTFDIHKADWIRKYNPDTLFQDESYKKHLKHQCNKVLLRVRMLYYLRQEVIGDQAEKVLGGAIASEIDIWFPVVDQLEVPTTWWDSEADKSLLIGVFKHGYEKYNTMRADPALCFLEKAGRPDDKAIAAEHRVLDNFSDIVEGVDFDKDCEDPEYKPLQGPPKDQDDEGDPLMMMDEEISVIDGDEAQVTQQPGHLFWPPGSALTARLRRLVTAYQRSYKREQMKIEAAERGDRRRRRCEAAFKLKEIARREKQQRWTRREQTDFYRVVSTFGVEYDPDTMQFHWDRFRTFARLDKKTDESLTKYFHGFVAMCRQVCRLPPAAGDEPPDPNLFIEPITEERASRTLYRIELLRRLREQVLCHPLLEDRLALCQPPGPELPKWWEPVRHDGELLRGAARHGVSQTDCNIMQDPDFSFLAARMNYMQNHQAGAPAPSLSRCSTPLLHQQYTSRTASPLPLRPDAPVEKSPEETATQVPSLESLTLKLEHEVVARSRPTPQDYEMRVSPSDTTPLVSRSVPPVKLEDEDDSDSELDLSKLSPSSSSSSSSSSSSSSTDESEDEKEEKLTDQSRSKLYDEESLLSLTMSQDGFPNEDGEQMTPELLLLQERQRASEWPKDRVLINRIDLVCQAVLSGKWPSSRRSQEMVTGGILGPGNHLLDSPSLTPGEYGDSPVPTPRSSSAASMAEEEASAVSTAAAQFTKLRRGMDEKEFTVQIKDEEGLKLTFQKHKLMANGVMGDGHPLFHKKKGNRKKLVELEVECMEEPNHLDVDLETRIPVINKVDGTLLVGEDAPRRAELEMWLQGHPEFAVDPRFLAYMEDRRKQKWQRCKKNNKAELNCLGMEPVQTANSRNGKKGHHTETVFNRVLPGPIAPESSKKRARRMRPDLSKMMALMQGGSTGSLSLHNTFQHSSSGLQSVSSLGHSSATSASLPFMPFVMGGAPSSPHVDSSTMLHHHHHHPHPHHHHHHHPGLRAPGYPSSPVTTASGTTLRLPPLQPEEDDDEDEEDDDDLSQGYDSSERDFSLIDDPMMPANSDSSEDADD
UniProt Q8N1G2: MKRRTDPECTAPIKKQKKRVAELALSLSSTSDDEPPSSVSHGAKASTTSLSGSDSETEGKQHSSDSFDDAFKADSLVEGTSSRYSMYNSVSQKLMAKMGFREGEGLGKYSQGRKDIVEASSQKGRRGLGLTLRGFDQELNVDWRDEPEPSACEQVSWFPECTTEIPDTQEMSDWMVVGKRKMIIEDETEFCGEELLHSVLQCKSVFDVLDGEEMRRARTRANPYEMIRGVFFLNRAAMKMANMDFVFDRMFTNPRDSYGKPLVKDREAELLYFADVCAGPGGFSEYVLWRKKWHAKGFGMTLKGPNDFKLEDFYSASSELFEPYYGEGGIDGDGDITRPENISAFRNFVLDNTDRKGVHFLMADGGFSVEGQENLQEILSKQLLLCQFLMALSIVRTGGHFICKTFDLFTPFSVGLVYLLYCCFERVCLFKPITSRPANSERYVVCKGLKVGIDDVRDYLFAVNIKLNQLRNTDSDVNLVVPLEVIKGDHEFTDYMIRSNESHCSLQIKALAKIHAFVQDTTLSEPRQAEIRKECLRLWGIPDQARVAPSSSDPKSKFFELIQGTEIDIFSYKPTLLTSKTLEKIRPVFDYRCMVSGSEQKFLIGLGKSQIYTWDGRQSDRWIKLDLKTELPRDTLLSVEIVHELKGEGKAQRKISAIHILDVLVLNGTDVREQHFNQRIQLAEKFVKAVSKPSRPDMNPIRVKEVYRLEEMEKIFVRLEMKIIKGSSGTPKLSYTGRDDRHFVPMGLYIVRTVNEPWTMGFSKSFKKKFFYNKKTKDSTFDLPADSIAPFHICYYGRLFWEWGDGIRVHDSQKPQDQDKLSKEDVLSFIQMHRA

Columns and labels:
Assay in all cases: log2 fold change, soluble protein after heating vs DMSO (PISA); higher = thermal stabilisation; K562 lysate, 10 uM; active = over 0.2 and 3.5 SD of the protein, either way, in both replicates (recomputed)
erlotinib = compound: C#Cc1cccc(Nc2ncnc3cc(OCCOC)c(OCCOC)cc23)c1 [erlotinib]
In short: (§1)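 Following dounce homogenisation of K562 pellets in PBS pH 7.4 with 1 mM MgCl2, crude extract at 1 mg/mL protein was incubated for 30 min with 10 μM compound. Aliquots were then heated for 3 min over 48°C-58°C and pooled, NP-40 was added to 0.5% at 4°C, and soluble protein was recovered as the supernatant at 21,000xg for 90 min. Channel-sum-equalised TMTpro 16plex LC-MS/MS quantified this protein. Each value, from duplicates, is a log-two fold change in thermal stability relative to solvent controls.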

[1] = compound: C/C(=N\NC(=O)C1=CC(=CC=C1)S(=O)(=O)N2CCOCC2)/C3=C(C=CC(=C3)Cl)O
In short: as §1

[2] = compound: C1=CC(=CC=C1C2=NC3=C(N2)C=C(C=C3)C(=O)N)OC4=CC=C(C=C4)Cl
In short: as §1

[3] = compound: C1=CC2=C(C=CC(=C2)/C=C\3/C(=O)NC(=NCC4=CC=CS4)S3)N=C1
In short: as §1

[4] = compound: C1=CC2=NC=CN=C2C=C1/C=C/3\C(=O)NC(=O)S3
In short: as §1

[5] = compound: C1=CC=C(C=C1)C2=NC(=C(N2)C3=CC=NC=C3)C4=CC(=C(C=C4)Cl)O
In short: as §1

[6] = compound: C1=CC=C2C(=C1)C3=NNC4=CC=CC(=C43)C2=O
In short: as §1

[7] = compound: C1CCN(C1)C(=O)NC2=CC=CC(=C2)NC3=NC=C(C(=N3)NCCC4=CN=CN4)Br
In short: as §1

[8] = compound: C1CN(CCC1(CC2=CC=C(C=C2)Cl)N)C3=NC=NC4=C3C=CN4
In short: as §1

IRAK-1-4 Inhibitor I = compound: C1COCCN1CCN2C3=CC=CC=C3N=C2NC(=O)C4=CC(=CC=C4)[N+](=O)[O-] [IRAK-1-4 Inhibitor I]
In short: as §1

ibrutinib = compound: C=CC(=O)N1CCC[C@@H](n2nc(-c3ccc(Oc4ccccc4)cc3)c3c(N)ncnc32)C1 [ibrutinib]
In short: as §1

[9] = compound: CC(=O)c1cnc2ccc(-c3cc(Cl)c(O)c(Cl)c3)nc2c1N[C@H]1CC[C@H](CN(C)C)CC1
In short: as §1

ralimetinib = compound: CC(C)(C)Cn1c(N)nc2ccc(-c3[nH]c(C(C)(C)C)nc3-c3ccc(F)cc3)nc21 [ralimetinib]
In short: as §1

[10] = compound: CC(C)(O)CC(=O)NCCn1ccc2ncnc(Nc3ccc(Oc4cccc(C(F)(F)F)c4)c(Cl)c3)c21
In short: as §1

[11] = compound: CC(C)C1=C2N=C(C=C(N2N=C1)NCC3=CC=CC=C3)NCCCCCCN
In short: as §1

[12] = compound: CC1=C(C(CC(=O)N1)C2=CC=C(C=C2)C(F)(F)F)C(=O)NC3=C(C=C4C(=C3)C=NN4)F
In short: as §1

[13] = compound: CC1=C(C2=C(C=C1)C(=O)C3=CC=CC=C3N2CCCN)C
In short: as §1

[14] = compound: CC1=C(C=C(C=C1)NC(=O)C2=CC(=CC=C2)C(C)(C)C#N)NC3=CC4=C(C=C3)N=CN(C4=O)C
In short: as §1

[15] = compound: CC1=C(C=C(C=C1)NC(=O)C2=CC(=CC=C2)N(C)C)NC(=O)C3=CC=C(C=C3)O
In short: as §1

[16] = compound: CC1=CC=C(C=C1)SC2=C3C=C(SC3=CN=C2)C(=O)N
In short: as §1

Measured: log2 fold change

CIT isoform 4 (UniProt O14578)
inactive: erlotinib 0.045 | [1] -0.032 | [2] 0.006 | [3] 0.043 | [4] -0.02 | [5] 0.031 | [6] 0.028 | [7] -0.003 | [8] 0.056 | IRAK-1-4 Inhibitor I 0.001 | ibrutinib 0.013 | [9] 0.072 | ralimetinib -0.007 | [10] -0.01 | [11] 0.003 | [12] 0.005 | [13] 0.005 | [14] -0.018 | [15] 0.004 | [16] -0.015

CHID1 (UniProt Q9BWS9)
inactive: erlotinib -0.011 | [1] -0.015 | [2] 0.033 | [3] 0.01 | [4] -0.004 | [5] -0.017 | [6] 0.006 | [7] -0.002 | [8] 0.015 | IRAK-1-4 Inhibitor I -0.004 | ibrutinib 0.026 | [9] 0.009 | ralimetinib 0.002 | [10] 0.011 | [11] 0.002 | [12] -0.02 | [13] 0.027 | [14] 0.026 | [15] -0.013 | [16] -0.001

CHCHD2 (UniProt Q9Y6H1)
inactive: erlotinib -0.068 | [1] -0.03 | [2] -0.086 | [3] 0.033 | [4] -0.024 | [5] 0.027 | [6] 0.092 | [7] 0.009 | [8] 0.057 | IRAK-1-4 Inhibitor I -0.005 | ibrutinib -0.122 | [9] -0.005 | ralimetinib -0.068 | [10] 0.035 | [11] 0.02 | [12] 0.112 | [13] 0.023 | [14] -0.172 | [15] -0.046 | [16] 0.069

Two records picked at random from those above:
CHCHD2 (UniProt Q9Y6H1)
inactive: erlotinib -0.068 | [1] -0.03 | [2] -0.086 | [3] 0.033 | [4] -0.024 | [5] 0.027 | [6] 0.092 | [7] 0.009 | [8] 0.057 | IRAK-1-4 Inhibitor I -0.005 | ibrutinib -0.122 | [9] -0.005 | ralimetinib -0.068 | [10] 0.035 | [11] 0.02 | [12] 0.112 | [13] 0.023 | [14] -0.172 | [15] -0.046 | [16] 0.069

CIT isoform 4 (UniProt O14578)
inactive: erlotinib 0.045 | [1] -0.032 | [2] 0.006 | [3] 0.043 | [4] -0.02 | [5] 0.031 | [6] 0.028 | [7] -0.003 | [8] 0.056 | IRAK-1-4 Inhibitor I 0.001 | ibrutinib 0.013 | [9] 0.072 | ralimetinib -0.007 | [10] -0.01 | [11] 0.003 | [12] 0.005 | [13] 0.005 | [14] -0.018 | [15] 0.004 | [16] -0.015

(listing goes on)

CHD4 isoform 2 (UniProt Q14839)
inactive: erlotinib -0.02 | [1] 0.009 | [2] 0.007 | [3] 0.004 | [4] -0.016 | [5] -0.004 | [6] -0.013 | [7] -0.013 | [8] 0.031 | IRAK-1-4 Inhibitor I -0.015 | ibrutinib -0.003 | [9] -0.008 | ralimetinib 0.026 | [10] 0.011 | [11] 0.025 | [12] 0.001 | [13] -0.037 | [14] 0.004 | [15] 0.006 | [16] 0.022

CMTM3 (UniProt Q96MX0)
inactive: erlotinib 0.002 | [1] -0.112 | [2] 0.053 | [3] -0.084 | [4] -0.009 | [5] -0.011 | [6] -0.019 | [7] -0.083 | [8] -0.089 | IRAK-1-4 Inhibitor I -0.012 | ibrutinib -0.036 | [9] 0.036 | ralimetinib 0.093 | [10] 0.104 | [11] -0.022 | [12] 0.052 | [13] -0.06 | [14] 0.06 | [15] -0.039 | [16] -0.016

CHORDC1 (UniProt Q9UHD1)
inactive: erlotinib 0.015 | [1] 0.007 | [2] 0.017 | [3] 0.001 | [4] 0.004 | [5] 0.002 | [6] 0.005 | [7] -0.007 | [8] 0.015 | IRAK-1-4 Inhibitor I -0.016 | ibrutinib -0.002 | [9] 0.004 | ralimetinib -0.009 | [10] -0.001 | [11] -0.032 | [12] -0.009 | [13] 0.001 | [14] 0.023 | [15] 0.033 | [16] 0.006

CIRBP (UniProt Q14011)
inactive: erlotinib 0.02 | [1] -0.077 | [2] 0.031 | [3] 0.03 | [4] 0.003 | [5] 0.017 | [6] -0.019 | [7] 0.033 | [8] 0.015 | IRAK-1-4 Inhibitor I 0.012 | ibrutinib 0 | [9] -0.023 | ralimetinib 0.006 | [10] -0.011 | [11] -0.02 | [12] 0 | [13] 0 | [14] 0 | [15] -0.012 | [16] 0.018

CIAO3 (UniProt Q9H6Q4)
inactive: erlotinib 0.002 | [1] 0.01 | [2] 0.027 | [3] -0.013 | [4] -0.017 | [5] 0.002 | [6] -0.033 | [7] 0.023 | [8] 0.016 | IRAK-1-4 Inhibitor I 0.002 | ibrutinib 0.07 | [9] 0.006 | ralimetinib 0.024 | [10] -0.018 | [11] -0.037 | [12] -0.022 | [13] -0.021 | [14] 0.051 | [15] -0.023 | [16] -0.006

CHMP1B (UniProt Q7LBR1)
inactive: erlotinib -0.071 | [1] -0.037 | [2] -0.009 | [3] 0.026 | [4] 0 | [5] 0.033 | [6] 0.024 | [7] -0.006 | [8] -0.003 | IRAK-1-4 Inhibitor I 0.004 | ibrutinib -0.035 | [9] -0.023 | ralimetinib 0 | [10] -0.025 | [11] -0.032 | [12] -0.048 | [13] 0.006 | [14] -0.003 | [15] 0.005 | [16] -0.028

CKMT2 (UniProt P17540)
inactive: erlotinib 0.03 | [1] -0.073 | [2] 0 | [3] 0.014 | [4] -0.103 | [5] -0.008 | [6] -0.066 | [7] 0.018 | [8] -0.036 | IRAK-1-4 Inhibitor I 0.023 | ibrutinib 0.054 | [9] -0.03 | ralimetinib 0.087 | [10] -0.035 | [11] 0.033 | [12] -0.039 | [13] -0.027 | [14] -0.029 | [15] 0.043 | [16] 0.036

CHD5 (UniProt Q8TDI0)
inactive: erlotinib 0.008 | [1] -0.004 | [2] -0.031 | [3] 0.056 | [4] -0.035 | [5] 0.043 | [6] -0.072 | [7] 0.058 | [8] -0.003 | IRAK-1-4 Inhibitor I -0.016 | ibrutinib -0.063 | [9] 0.015 | ralimetinib 0 | [10] 0.005 | [11] -0.011 | [12] 0.026 | [13] -0.026 | [14] -0.005 | [15] 0.029 | [16] 0.01

CMPK2 (UniProt Q5EBM0)
inactive: erlotinib -0.019 | [1] 0.07 | [2] 0.006 | [3] -0.035 | [4] -0.016 | [5] 0.004 | [6] -0.038 | [7] -0.03 | [8] 0.031 | IRAK-1-4 Inhibitor I 0.024 | ibrutinib 0.012 | [9] 0.045 | ralimetinib -0.012 | [10] 0.012 | [11] 0.026 | [12] 0.014 | [13] 0.027 | [14] 0.009 | [15] -0.018 | [16] -0.01

CHMP4C (UniProt Q96CF2)
inactive: erlotinib -0.028 | [1] 0.028 | [2] 0.04 | [3] 0.022 | [4] -0.024 | [5] 0.024 | [6] -0.023 | [7] -0.022 | [8] -0.015 | IRAK-1-4 Inhibitor I 0.057 | ibrutinib 0.085 | [9] -0.025 | ralimetinib -0.16 | [10] -0.024 | [11] -0.005 | [12] 0.04 | [13] -0.022 | [14] 0.022 | [15] -0.03 | [16] -0.054

CHD8 (UniProt Q9HCK8)
inactive: erlotinib 0.042 | [1] 0.045 | [2] -0.052 | [3] 0.012 | [4] -0.026 | [5] 0.035 | [6] 0.042 | [7] -0.038 | [8] 0.039 | IRAK-1-4 Inhibitor I -0.004 | ibrutinib -0.012 | [9] -0.061 | ralimetinib 0.018 | [10] -0.015 | [11] 0.018 | [12] -0.036 | [13] -0.035 | [14] -0.037 | [15] 0.053 | [16] 0.091

CMTR1 (UniProt Q8N1G2)
inactive: erlotinib -0.003 | [1] -0.012 | [2] -0.056 | [3] 0.035 | [4] -0.007 | [5] 0.016 | [6] -0.036 | [7] -0.004 | [8] -0.005 | IRAK-1-4 Inhibitor I -0.007 | ibrutinib -0.011 | [9] 0.023 | ralimetinib 0.045 | [10] 0.031 | [11] 0.003 | [12] -0.019 | [13] -0.009 | [14] 0.036 | [15] 0.049 | [16] 0.003
